One data set concerns the target GLP-1R (Homo sapiens, UniProt P43220). Nature of the data set: GLP-1R activation: cAMP increase in CHO cells stably expressing GLP-1R. Particulars: 10 point dose response, 30 minutes incubation. Format: cell-based.
A short description of data set [1]: Microsomal stability, human liver microsomes (predicted hepatic clearance). Particulars: predicted from in vitro microsomal stability data.

Sequences of proteins named here, by UniProt entry; tags and fusion partners are left off. Residues count along the entry.
UniProt P43220, 24-463 limits assumed: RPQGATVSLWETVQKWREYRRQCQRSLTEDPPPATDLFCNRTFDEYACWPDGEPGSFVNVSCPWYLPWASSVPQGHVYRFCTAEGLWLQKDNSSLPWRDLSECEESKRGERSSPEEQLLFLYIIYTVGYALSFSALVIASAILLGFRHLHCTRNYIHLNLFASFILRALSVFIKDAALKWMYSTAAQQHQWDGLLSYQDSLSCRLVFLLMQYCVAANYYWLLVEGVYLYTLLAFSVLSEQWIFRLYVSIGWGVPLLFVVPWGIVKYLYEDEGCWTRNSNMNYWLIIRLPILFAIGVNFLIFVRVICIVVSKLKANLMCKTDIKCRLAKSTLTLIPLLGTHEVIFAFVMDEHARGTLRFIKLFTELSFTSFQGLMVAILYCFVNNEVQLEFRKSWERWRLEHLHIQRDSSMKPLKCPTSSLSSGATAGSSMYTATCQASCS

Molecules are shown by their SMILES. Structures were worked out from names or drawings and are uncertain.

As usually defined, the EC50 is the concentration at which the effect is half-maximal. A lower EC50 goes with higher potency in that assay. Compound `N#Cc1ccc(COc2cccc(-c3ccc(Cc4nc5c(I)cc(C(=O)O)cc5n4CC4(CF)CC4)c(F)c3)n2)c(F)c1` displayed an EC50 at GLP-1R of 1.7 nM. Besides, the “Predicted Hepatic Clearance (Pred. Cl.)” value in data set [1] is 6.33 mL/min/kg.
